Test results: article PMC8782181

By UniProt entry, the sequences of proteins in these tests, tags left out.
UniProt P53297: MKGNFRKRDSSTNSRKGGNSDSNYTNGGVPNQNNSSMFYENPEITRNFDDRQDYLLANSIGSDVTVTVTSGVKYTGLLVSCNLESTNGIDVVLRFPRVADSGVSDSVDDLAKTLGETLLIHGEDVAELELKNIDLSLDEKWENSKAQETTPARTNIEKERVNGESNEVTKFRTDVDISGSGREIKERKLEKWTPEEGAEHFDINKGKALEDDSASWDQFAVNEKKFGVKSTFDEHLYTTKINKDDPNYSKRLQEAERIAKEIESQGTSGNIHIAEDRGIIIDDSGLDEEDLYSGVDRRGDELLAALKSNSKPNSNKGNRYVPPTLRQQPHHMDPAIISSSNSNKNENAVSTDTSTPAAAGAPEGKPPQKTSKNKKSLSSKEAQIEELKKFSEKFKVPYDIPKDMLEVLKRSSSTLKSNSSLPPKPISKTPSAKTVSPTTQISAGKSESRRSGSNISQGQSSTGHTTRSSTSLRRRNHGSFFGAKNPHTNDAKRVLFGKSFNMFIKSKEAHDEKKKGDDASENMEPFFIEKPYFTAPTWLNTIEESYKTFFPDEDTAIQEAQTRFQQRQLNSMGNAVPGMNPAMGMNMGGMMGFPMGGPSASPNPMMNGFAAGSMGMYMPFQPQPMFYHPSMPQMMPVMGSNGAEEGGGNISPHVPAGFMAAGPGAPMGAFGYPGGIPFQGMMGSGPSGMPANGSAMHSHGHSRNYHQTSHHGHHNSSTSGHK

T1: Dcp1-myc (S. cerevisiae) (UniProt Q12517)
T1 sequence: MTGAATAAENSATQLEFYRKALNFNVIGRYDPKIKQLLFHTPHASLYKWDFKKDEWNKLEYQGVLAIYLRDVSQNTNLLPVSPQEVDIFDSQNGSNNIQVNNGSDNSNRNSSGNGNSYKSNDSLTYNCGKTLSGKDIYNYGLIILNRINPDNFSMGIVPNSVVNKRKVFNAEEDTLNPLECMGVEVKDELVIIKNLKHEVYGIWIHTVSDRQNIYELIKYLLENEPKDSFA

B1: Yro2 (protein, UniProt P38079 1-344)
chain: MSDYVELLKRGGNEAIKINPPTGADFHITSRGSDWLFTVFCVNLLFGVILVPLMFRKPVKDRFVYYTAIAPNLFMSIAYFTMASNLGWIPVRAKYNHVQTSTQKEHPGYRQIFYARYVGWFLAFPWPIIQMSLLGGTPLWQIAFNVGMTEIFTVCWLIAACVHSTYKWGYYTIGIGAAIVVCISLMTTTFNLVKARGKDVSNVFITFMSVIMFLWLIAYPTCFGITDGGNVLQPDSATIFYGIIDLLILSILPVLFMPLANYLGIERLGLIFDEEPAEHVGPVAEKKMPSPASFKSSDSDSSIKEKLKLKKKHKKDKKKAKKAKKAKKAKKAQEEEEDVATDSE
B2: Gas5 (protein, UniProt Q08193 20-462)
chain: ASSSNSSTPSIEIKGNAFFNSESGERFYIRGVDYQPGGSSNLTDPLADASVCDRDVPVLKDLGINTVRVYTVDNSQDHSHCMKLLQENGIYLILDVNTPTSAISRYDPACSYNADYLQNVFATIDTFADYDNVLGFFAGNEVINSVNTTNTATYVKAVVRDMKKYIKARKYRQIPVGYSAADIVANRQLAAEYFNCGDEADARIDMFGVNDYSWCGESSFVVSGYSTKMKLYQDYSVPVFLSEFGCNQVKSSRPFTEIEAIYSTQMSSVFSGGLVYEYSNETNNYGLVQIDGDKVTKLTDFENLKNEYSKVSNPEGNGGYSTSNNYSTCPDYEKGVWEANNTLPAMPSAASAYFTSGAGSPMGTGIATQQSCDAKDDDDEEDDDTSSSSSSSSSSSSSASSSSESSSSTSKASSSSPSASETSLLKSAASATSSSQSSSKSKG
B3: Gbp2 (protein, UniProt P25555 1-427)
chain: MERELGMYGNDRSRSRSPVRRRLSDDRDRYDDYNDSSSNNGNGSRRQRRDRGSRFNDRYDQSYGGSRYHDDRNWPPRRGGRGRGGSRSFRGGRGGGRGRTLGPIVERDLERQFDATKRNFENSIFVRNLTFDCTPEDLKELFGTVGEVVEADIITSKGHHRGMGTVEFTKNESVQDAISKFDGALFMDRKLMVRQDNPPPEAAKEFSKKATREEIDNGFEVFIINLPYSMNWQSLKDMFKECGHVLRADVELDFNGFSRGFGSVIYPTEDEMIRAIDTFNGMEVEGRVLEVREGRFNKRKNNDRYNQRREDLEDTRGTEPGLAQDAAVHIDETAAKFTEGVNPGGDRNCFIYCSNLPFSTARSDLFDLFGPIGKINNAELKPQENGQPTGVAVVEYENLVDADFCIQKLNNYNYGGCSLQISYARRD
B4: Hnm1 (protein, UniProt P19807 1-563)
chain: MSIRNDNASGGYMQPDQSSNASMHKRDLRVEEEIKPLDDMDSKGAVAADGEVHLRKSFSLWSILGVGFGLTNSWFGISTSMVAGISSGGPMMIVYGIIIVALISICIGTSLGELSSAYPHAGGQFWWSLKLAPPKYKRFAAYMCGSFAYAGSVFTSASTTLSVATEVVGMYALTHPEFIPKRWHIFVCFELLHLFLMFFNCYGKSLPIISSSSLYISLLSFFTITITVLACSHGKFNDAKFVFATFNNETGWKNGGIAFIVGLINPAWSFSCLDCATHMAFEVEKPERVIPIAIMGTVAIGFVTSFCYVIAMFFSIQDLDAVLSSTTGAPILDIYNQALGNKSGAIFLGCLILFTSFGCVIACHTWQARLCWSFARDNGLPLSRLWSQVNPHTGVPLNAHLMSCAWITLIGLLYLASSTAFQSLITGCIAFLLLSYIIPVICLLAKKRNIAHGPFWLGKFGFFSNIVLLGWTVFSVVFFSFPPVLPVTKDNMNYVCVVIVGYTAYSILYWKYKGKKEFHALEESENEQAEYSNNFDTIEDSREFSVAASDVELENEHVPWGKK
B5: Lsm12 (protein, UniProt P38828 1-187)
chain: MSVSLEQTLGFRIKVTNVLDVVTEGRLYSFNSSNNTLTIQTTKKNQSPQNFKVIKCTFIKHLEVIGDKPSFNSFKKQQIKPSYVNVERVEKLLKESVIASKKKELLRGKGVSAEGQFIFDQIFKTIGDTKWVAKDIIILDDVKVQPPYKVEDIKVLHEGSNQSITLIQRIVERSWEQLEQDDGRKGG

Assays:
Pbp1-myc (S. cerevisiae) = Pbp1-myc (S. cerevisiae) (UniProt P53297); test: affinity purification with mass spectrometry; cells unstressed or glucose-depleted (10 min for Dcp1-myc, 60 min for Pbp1-myc), cross-linked with 0.8% formaldehyde; 20,000 g pellet of the lysate in Blob100 buffer (20 mM Tris-HCl pH 8, 100 mM NaCl, 1 mM MgCl2, 0.5% NP40) on anti-c-Myc magnetic beads, eluted with Myc peptide; label-free LC-MS/MS; hits are the proteins that cluster (Mfuzz) with the tagged bait across IP, pellet, supernatant, total and unbound fractions
Dcp1-myc (S. cerevisiae) = target: T1, Dcp1-myc (S. cerevisiae); test: as above

Row | Binder | binding (Pbp1-myc (S. cerevisiae)) | binding (Dcp1-myc (S. cerevisiae))
1 | B1 | binds | binds
2 | B2 | binds | binds
3 | B3 | binds | binds
4 | B4 | binds | binds
5 | B5 | binds | binds

No constants are given. Whether binding was seen depends on the method and setting. In cells and extracts the contact can be indirect. A yes stands for co-enrichment or nearness to the bait. Other partners may have been found. For some of these results: Where a sequence is shown, tags or fusion partners need not be part of it.
